Results deposited as PubChem BioAssay AID1224828 (NIAID, 2016).
Screen: 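Find genes required for NF-kappaB p65 moving into the nucleus after LPS in mouse macrophages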 (primary screen). Cell system: mouse RAW264.7 G9 macrophage reporter cells (GFP-p65, Tnf promoter-mCherry). Knock-down reagent: siRNA pool against mouse genes, 100 nM. Duration: 2 days siRNA transfection, then 40 min LPS before fixation. Treatment: LPS (Salmonella minnesota R595) at 10 ng/ml. Detection: 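Imaged p65 nuclear translocation ratio, normalised to the plate median, converted to robust z-scores and averaged across two replicates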. Scale: p65 translocation robust z-score: higher = more nuclear NF-kappaB p65 after LPS than the plate median; nuclear/cytoplasmic p65 ratio: higher = more nuclear NF-kappaB p65. Hit rule: 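Called active when z exceeds 3.3 or falls under -1.56 (median of Tlr4 controls), giving activity score of at least 50; no calls for control wells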. Meaning of the calls: active = hit (p65 shift raised or lowered); inactive = no clear change.
Shown is one part, drawn at random, of about 17,000 deposited reagents. Of all reagents, 762 (4.5%) got an active call. 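Active calls include both raised and lowered p65 entry, mostly lowered; wells with fewer than 50 cells lack a z-score.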 Raw values are not corrected between plates. Reagents against one gene are numbered here.

| gene | reagent | p65 translocation robust z-score | nuclear/cytoplasmic p65 ratio, rep 1 | nuclear/cytoplasmic p65 ratio, rep 2 | low cell count flag | Call |
| --- | --- | --- | --- | --- | --- | --- |
| Triobp (TRIO and F-actin binding protein) | 1 | -0.23 | 1.4 | 1.17 | enough cells to score | inactive |
| Trpm4 | 1 | -1.1 | 1.44 | 1.28 | enough cells to score | inactive |
| Vegfc (vascular endothelial growth factor C) | 1 | 0.04 | 1.47 | 1.55 | enough cells to score | inactive |
| Manba (mannosidase, beta A, lysosomal) | 1 | 1.1 | 1.65 | 1.42 | enough cells to score | inactive |
| Gadd45gip1 | 1 | -0.37 | 1.34 | 1.36 | enough cells to score | inactive |
| Or5b108 (olfactory receptor family 5 subfamily B member 108) | 1 | -0.72 | 1.5 | 1.33 | enough cells to score | inactive |
| Plcxd1 | 1 | – | 1.73 | 1.81 | fewer than 50 cells per well; well left out of scoring | inactive |
| Vmn1r18 (vomeronasal 1 receptor 18) | 1 | 1.54 | 1.67 | 1.34 | enough cells to score | inactive |
| Insyn1 (inhibitory synaptic factor 1) | 1 | 1.02 | 1.45 | 1.6 | enough cells to score | inactive |
| Nkap (NFKB activating protein) | 1 | – | 1.54 | 1.58 | fewer than 50 cells per well; well left out of scoring | inactive |
| Tma16 (translation machinery associated 16) | 1 | 0.45 | 1.3 | 1.47 | enough cells to score | inactive |
| Slc9a9 | 1 | – | 1.32 | 1.17 | fewer than 50 cells per well; well left out of scoring | inactive |
| Smco1 (single-pass membrane protein with coiled-coil domains 1) | 1 | -0.71 | 1.25 | 1.24 | enough cells to score | inactive |
| Hmgcr (3-hydroxy-3-methylglutaryl-Coenzyme A reductase) | 1 | -0.56 | 1.35 | 1.32 | enough cells to score | inactive |
| Mapk6 (mitogen-activated protein kinase 6) | 1 | 0.62 | 1.71 | 1.45 | enough cells to score | inactive |
| Ap1s3 (adaptor-related protein complex AP-1, sigma 3) | 1 | 0.68 | 1.64 | 1.86 | enough cells to score | inactive |
| H2ap (H2A.P histone) | 1 | -1.14 | 1.15 | 1.27 | enough cells to score | inactive |
| Bsx (brain specific homeobox) | 1 | – | 1.17 | 1.97 | fewer than 50 cells per well; well left out of scoring | inactive |
| Spata17 (spermatogenesis associated 17) | 1 | – | 1.23 | 0 | fewer than 50 cells per well; well left out of scoring | inactive |
| Timm10b (translocase of inner mitochondrial membrane 10B) | 1 | -0.19 | 1.64 | 1.37 | enough cells to score | inactive |
| Tfr2 (transferrin receptor 2) | 1 | 0.93 | 1.61 | 1.66 | enough cells to score | inactive |
| Ssr3 (signal sequence receptor, gamma) | 1 | -0.21 | 1.44 | 1.6 | enough cells to score | inactive |
| Ppat (phosphoribosyl pyrophosphate amidotransferase) | 1 | 0.42 | 1.61 | 1.41 | enough cells to score | inactive |
| Snhg11 (small nucleolar RNA host gene 11) | 1 | -0.58 | 1.29 | 1.46 | enough cells to score | inactive |
| Oit3 (oncoprotein induced transcript 3) | 1 | -0.78 | 1.59 | 1.42 | enough cells to score | inactive |
| Snap23 (synaptosomal-associated protein 23) | 1 | – | 1.62 | 1.26 | fewer than 50 cells per well; well left out of scoring | inactive |
| Ankrd24 (ankyrin repeat domain 24) | 1 | -0.14 | 1.47 | 1.85 | enough cells to score | inactive |
| Actr5 (ARP5 actin-related protein 5) | 1 | 0.13 | 1.68 | 1.64 | enough cells to score | inactive |
| Il1b (interleukin 1 beta) | 1 | 0.17 | 1.52 | 1.38 | enough cells to score | inactive |
| Ncoa6 (nuclear receptor coactivator 6) | 1 | 0.15 | 1.46 | 1.37 | enough cells to score | inactive |
| Larp7 (La ribonucleoprotein 7, transcriptional regulator) | 1 | 1.08 | 1.77 | 1.66 | enough cells to score | inactive |
| Adam6a (a disintegrin and metallopeptidase domain 6A) | 1 | 0.52 | 1.69 | 1.76 | enough cells to score | inactive |
| Crx (cone-rod homeobox) | 1 | 0.53 | 1.61 | 1.39 | enough cells to score | inactive |
| Or10p21 (olfactory receptor family 10 subfamily P member 21) | 1 | – | 1.44 | 1.26 | fewer than 50 cells per well; well left out of scoring | inactive |
| Nbn (nibrin) | 1 | -0.69 | 1.29 | 1.26 | enough cells to score | inactive |
| Krt42 (keratin 42) | 1 | 0.59 | 1.49 | 1.53 | enough cells to score | inactive |
| Dus1l (dihydrouridine synthase 1 like) | 1 | 0.55 | 1.58 | 1.61 | enough cells to score | inactive |
| Tut4 (terminal uridylyl transferase 4) | 1 | – | 1.37 | 1.05 | fewer than 50 cells per well; well left out of scoring | inactive |
| Tars2 (threonyl-tRNA synthetase 2, mitochondrial (putative)) | 1 | -0.22 | 1.38 | 1.42 | enough cells to score | inactive |
| Or52n2b (olfactory receptor family 52 subfamily N member 2B) | 1 | 0.68 | 1.61 | 1.29 | enough cells to score | inactive |
| Trim41 (tripartite motif-containing 41) | 1 | -0.26 | 1.4 | 1.2 | enough cells to score | inactive |

9 neighbouring entries from above:
| gene | reagent | p65 translocation robust z-score | nuclear/cytoplasmic p65 ratio, rep 1 | nuclear/cytoplasmic p65 ratio, rep 2 | low cell count flag | Call |
| --- | --- | --- | --- | --- | --- | --- |
| Tma16 (translation machinery associated 16) | 1 | 0.45 | 1.3 | 1.47 | enough cells to score | inactive |
| Slc9a9 | 1 | – | 1.32 | 1.17 | fewer than 50 cells per well; well left out of scoring | inactive |
| Smco1 (single-pass membrane protein with coiled-coil domains 1) | 1 | -0.71 | 1.25 | 1.24 | enough cells to score | inactive |
| Hmgcr (3-hydroxy-3-methylglutaryl-Coenzyme A reductase) | 1 | -0.56 | 1.35 | 1.32 | enough cells to score | inactive |
| Mapk6 (mitogen-activated protein kinase 6) | 1 | 0.62 | 1.71 | 1.45 | enough cells to score | inactive |
| Ap1s3 (adaptor-related protein complex AP-1, sigma 3) | 1 | 0.68 | 1.64 | 1.86 | enough cells to score | inactive |
| H2ap (H2A.P histone) | 1 | -1.14 | 1.15 | 1.27 | enough cells to score | inactive |
| Bsx (brain specific homeobox) | 1 | – | 1.17 | 1.97 | fewer than 50 cells per well; well left out of scoring | inactive |
| Spata17 (spermatogenesis associated 17) | 1 | – | 1.23 | 0 | fewer than 50 cells per well; well left out of scoring | inactive |

The results go on.
| gene | reagent | p65 translocation robust z-score | nuclear/cytoplasmic p65 ratio, rep 1 | nuclear/cytoplasmic p65 ratio, rep 2 | low cell count flag | Call |
| --- | --- | --- | --- | --- | --- | --- |
| Vps45 (vacuolar protein sorting 45) | 1 | -0.33 | 1.38 | 1.19 | enough cells to score | inactive |
| Exosc6 (exosome component 6) | 1 | – | 1.4 | 1.4 | fewer than 50 cells per well; well left out of scoring | inactive |
| Fuca2 (fucosidase, alpha-L- 2, plasma) | 1 | 0.19 | 1.55 | 1.73 | enough cells to score | inactive |
| Prps1 (phosphoribosyl pyrophosphate synthetase 1) | 1 | 2.24 | 1.98 | 1.71 | enough cells to score | inactive |
| H2-Q5 (histocompatibility 2, Q region locus 5) | 1 | – | 1.65 | 1.53 | fewer than 50 cells per well; well left out of scoring | inactive |
| Serpina6 (serine (or cysteine) peptidase inhibitor, clade A, member 6) | 1 | -0.07 | 1.43 | 1.66 | enough cells to score | inactive |
| Ccnt1 (cyclin T1) | 1 | -1.31 | 1.25 | 1.25 | enough cells to score | inactive |
| Eloa (elongin A) | 1 | 0.49 | 1.61 | 1.57 | enough cells to score | inactive |
| Havcr2 (hepatitis A virus cellular receptor 2) | 1 | 0.3 | 1.47 | 1.41 | enough cells to score | inactive |
| Bmp10 (bone morphogenetic protein 10) | 1 | -1.24 | 1.25 | 1.37 | enough cells to score | inactive |
| Fn3k (fructosamine 3 kinase) | 1 | 2.36 | 2.09 | 1.66 | enough cells to score | inactive |
| Morn2 (MORN repeat containing 2) | 1 | 2.17 | 2.04 | 2 | enough cells to score | inactive |
| Kcne5 | 1 | 0.7 | 1.54 | 1.5 | enough cells to score | inactive |
| Or10a2 (olfactory receptor family 10 subfamily A member 2) | 1 | -0.59 | 1.34 | 1.22 | enough cells to score | inactive |
| Smarcd1 (SWI/SNF related BAF chromatin remodeling complex subunit D1) | 1 | 0.63 | 1.62 | 1.67 | enough cells to score | inactive |
| Rabgef1 (RAB guanine nucleotide exchange factor (GEF) 1) | 1 | -0.55 | 1.48 | 1.41 | enough cells to score | inactive |
| Prl8a2 (prolactin family 8, subfamily a, member 2) | 1 | 0.92 | 1.5 | 1.56 | enough cells to score | inactive |
| Rnf133 (ring finger protein 133) | 1 | -1.08 | 1.18 | 1.1 | enough cells to score | inactive |
| Bnip3l (BCL2/adenovirus E1B interacting protein 3-like) | 1 | 0.03 | 1.64 | 1.6 | enough cells to score | inactive |
| Taar2 (trace amine-associated receptor 2) | 1 | -0.02 | 1.5 | 1.59 | enough cells to score | inactive |
| Pigf (phosphatidylinositol glycan anchor biosynthesis, class F) | 1 | -0.92 | 1.3 | 1.15 | enough cells to score | inactive |
| Or4a66 (olfactory receptor family 4 subfamily A member 66) | 1 | -1.12 | 1.56 | 1.35 | enough cells to score | inactive |
| Vkorc1l1 (vitamin K epoxide reductase complex, subunit 1-like 1) | 1 | – | 1.13 | 1.13 | fewer than 50 cells per well; well left out of scoring | inactive |
| Zfp202 (zinc finger protein 202) | 1 | 1.65 | 1.6 | 1.46 | enough cells to score | inactive |
| Avp (arginine vasopressin) | 1 | 0.46 | 1.74 | 1.63 | enough cells to score | inactive |
| Dcn (decorin) | 1 | 0.18 | 1.44 | 1.43 | enough cells to score | inactive |
| Pphln1 (periphilin 1) | 1 | – | 1.82 | 1.07 | fewer than 50 cells per well; well left out of scoring | inactive |
| Vmn1r189 (vomeronasal 1 receptor 189) | 1 | -1.56 | 1.12 | 1.1 | enough cells to score | inactive |
| Tpbpa (trophoblast specific protein alpha) | 1 | 0.46 | 1.38 | 1.28 | enough cells to score | inactive |
| Pyroxd1 (pyridine nucleotide-disulphide oxidoreductase domain 1) | 1 | -1.99 | 1.38 | 1.4 | enough cells to score | active |
| Fam187b (family with sequence similarity 187, member B) | 1 | 2.43 | 1.45 | 2 | enough cells to score | inactive |
| Rad9b (RAD9 checkpoint clamp component B) | 1 | – | 1.4 | 1.05 | fewer than 50 cells per well; well left out of scoring | inactive |
| Rad9b (RAD9 checkpoint clamp component B) | 2 | 0.19 | 1.48 | 1.47 | enough cells to score | inactive |
| Smyd1 (SET and MYND domain containing 1) | 1 | – | 1.52 | 1.14 | fewer than 50 cells per well; well left out of scoring | inactive |
